Source: PubChem BioAssay AID624291 (National Center for Advancing Translational Sciences (NCATS), 2012)
The whole screen tested about 350,000 compounds, of which about 220 (0.063%) were called active. This list was built around the results that the source calls inconclusive (neither active nor inactive); the mix of calls is not that of the screen. The call rests on the fitted dose curve; in most records, active means well fitted activation curve with a large enough effect; inconclusive means small, poorly fitted or top-dose-only effect; inactive means no such curve, though single readings can be large or run the other way. A potency beside an inconclusive call is a rough fit, not a confirmed value.

Assay: qHTS for Activators of Integrin-Mediated Alleviation for Muscular Dystrophy; further: nearly all actives have a fitted effect of over 60% in size;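 on activation: 100% = response of the positive control SU9516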
Details: alpha7betagal myoblasts, beta-gal FDG fluorescence, 48 h; activation: at 38.3 µM (top of the series)
In short: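 alpha7betagal+/- myoblasts (passage 13, 250/well) treated 48 h at 37C with compounds at 1:260 dilution of DMSO stock. Lysed, then beta-galactosidase activity read as FDG fluorescence (ex 480/em 540) after 30 min, with pre-read for autofluorescence.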
Potency means the concentration at half of the fitted maximal effect.

activation, inactive:
Cc1cccc(-n2ccnc2SCC(=O)Nc2nnc(C)s2)c1 -17.6%
COc1ccc(NC(=O)COC(=O)c2ncc(Cl)c(Cl)c2Cl)c(OC)c1 -30.4%
Cc1nc2cnccc2n1C 6.47%
NC(=S)Nc1cccc2cc3ccccc3cc12 0%
COc1ccccc1N1C(=O)S/C(=C\c2ccc(C)s2)C1=O 13.1%
COc1ccc(C(=O)COC(=O)CCNS(=O)(=O)c2ccc(NC(C)=O)cc2)c(OC)c1 11.9%
Cc1ccccc1Oc1nc(-c2ccccn2)nc2ccccc12 -12.4%
Cc1ccc2nc(-c3ccncc3)[nH]c2c1 -12.3%
COc1ccc(Cl)cc1C(=O)O/N=C(\N)c1ccccn1 -3.82%
CCO[C@@H]1OC(C(=O)NCc2nc3ccccc3[nH]2)=C[C@H](c2ccc(C(F)(F)F)cc2)[C@H]1CCCO -10.9%
COC(=O)c1ccc(N)cc1O 18.4%
O=C(NNc1nc2ccc(F)cc2s1)c1cccc(F)c1 5.62%
Cc1noc(C)c1C(=O)N(C)C[C@@H]1OCc2ccccc2-c2c(n(C)c3ccccc23)C(=O)N([C@H](C)CO)C[C@H]1C -7.37%
CNc1oc(-c2cccs2)nc1S(=O)(=O)c1ccccc1 7.81%
N#Cc1c(N)nc(SCC(=O)OCc2ccccc2)c(C#N)c1-c1ccco1 5.5%
Cc1cccc2cc(CN(CC3CCCO3)C(c3nnnn3Cc3ccco3)C(C)C)c(=O)[nH]c12 (centres undefined) 0%
COc1ccc(Nc2nc(N3CCCCC3)nc(N3CCCCC3)n2)c(OC)c1 4.65%
COc1ccc(/C=C(\NC(=O)c2ccccc2)C(=O)N2CCN(C)CC2)cc1OC 12.1%
C/C(=N\Nc1cccc(C(F)(F)F)c1)c1ccc(O)cc1 5.77%
COc1cccc(Nc2nc3ccccc3n2C(C)C)c1 -3.8%
Cc1c(Cl)cccc1NC(=O)NC1CCCCC1 21%

activation, inconclusive:
CN1CCC(N(C)C(=O)/C=C/c2cn(-c3ccccc3)nc2-c2cccs2)CC1 -67% [activator]

Potency, inconclusive:
O=C(CC(=O)N/N=C/c1ccc(F)cc1)N/N=C/c1ccc(F)cc1 5.01 µM [activator, single point]
CCOC(=O)c1nc(Nc2ccccc2CC)c2ccccc2n1 8.91 µM [activator, partial curve, poor fit]
Cc1ccc(NC(=O)CCNC(=O)c2ccc([N+](=O)[O-])cc2)cc1S(=O)(=O)N1CCOCC1 3.98 µM [activator, single point]
CCOc1ccccc1NC(=O)c1sc2nc(C)nc(N3CCOCC3)c2c1C 22.4 µM [activator, partial curve, poor fit]
CCC1CCCCN1C(=O)CN1C(=O)c2ccccc2S1(=O)=O (centres undefined) 5.62 µM [activator, partial curve, poor fit]
Cc1ccn2c(CNC(C)CCn3cccn3)c(C(=O)N3CCCCCC3)nc2c1 (centres undefined) 14.1 µM [activator, partial curve, poor fit]
O=C(Nc1ccc(F)c(F)c1)c1ccco1 12.6 µM [activator, single point]
COc1cc(/C=C2/C(=O)NN(c3ccc(Cl)cc3)C2=O)ccc1OC(=O)c1ccco1 17.8 µM [activator, partial curve, poor fit]
NS(=O)(=O)c1ccc(NC(=O)CCCCC(=O)Nc2ccc(S(N)(=O)=O)cc2)cc1 2 µM [activator, single point]
COc1ccccc1/C=C1\SC(=S)N(CCC(=O)Nc2cccc(O)c2)C1=O 5.01 µM [activator, single point]
CCCCc1nnc(NC(=O)c2oc3ccccc3c2C)s1 4.47 µM [activator, single point]
CCc1ccc(NC(=O)c2sc3nc4n(c(=O)c3c2C)CCC4)cc1 5.01 µM [activator, single point]
CCn1ncc(-c2cc(C(=O)O)no2)c1C 22.4 µM [activator, single point]
Cc1onc(-c2ccccc2)c1C(=O)NC(=S)NNC(=O)c1ccccc1O 28.2 µM [activator, single point]
CCCn1c(SCC(=O)Nc2cccc(C)n2)nc2c1c(=O)n(C)c(=O)n2C 5.62 µM [activator, partial curve, poor fit]
Cc1cccc2c1cnn2C(=O)Nc1ccccc1Cl 28.2 µM [activator, single point]
O=C(NC(=S)NC1CCCc2ccccc21)c1ccc(F)cc1 (centres undefined) 3.16 µM [activator, single point]
O=C(NCCCN1CCOCC1)c1ccc2c(=O)n(CCc3ccccc3)c(=O)[nH]c2c1 12.6 µM [activator, single point]
CN1CCN(c2cc3c(cc2F)c(=O)c(C(=O)O)cn3CCF)CC1 17.8 µM [activator, partial curve, poor fit]
COc1ccccc1C(=O)Nc1ccnn1C1CCN(Cc2ncc[nH]2)CC1 1.41 µM [activator, partial curve, poor fit]
CC(=O)c1ccc(NC(=O)NC2CCCc3ccccc32)cc1 (centres undefined) 3.55 µM [activator, single point]
O=C(c1ccc(COc2ccccc2)o1)N1CCN(S(=O)(=O)c2ccccc2Cl)CC1 1.58 µM [activator, single point]
COC(=O)c1cc(S(=O)(=O)NCC2CCN(CCc3cccs3)CC2)cn1C 1.58 µM [activator, partial curve, poor fit]
Cc1ccc(C)c(NC(=S)N(Cc2cccc(Br)c2)CC2CCC(C(=O)O)CC2)c1 (centres undefined) 28.2 µM [activator, single point]
Nc1ncccc1OCc1ccc(Cl)c(Cl)c1 28.2 µM [activator, single point]
C=CCOc1ccccc1CNCc1ccc(F)cc1 0.794 µM [activator, partial curve, poor fit]
COc1ccc(C2C(C#N)=C(N)Oc3c2oc(CO)cc3=O)cc1 (centres undefined) 3.16 µM [activator, full curve, poor fit]
N#CC1(Nc2ccc3ccccc3c2)CCCC1 20 µM [activator, single point]
CC(C)[C@H](NC(=O)C1CCN(S(=O)(=O)c2ccccc2)CC1)C(=O)NCc1ccco1 0.1 µM [activator, full curve, poor fit]
OC1(c2cccnc2)CCN(Cc2nnnn2Cc2ccccc2)CC1 11.2 µM [activator, partial curve, poor fit]
CC/C(=N\NC(=S)Nc1cccc(C)c1)c1ccccc1 10 µM [activator, partial curve, poor fit]
COc1cc(NC(=O)C(=O)NNC(=O)C2CCCCC2)c(OC)cc1Cl 0.501 µM [activator, full curve, poor fit]
O=C(N/N=C/C(Br)=C/c1ccccc1)C1CC1 3.16 µM [activator, full curve]
Cn1c(COc2ccc(Cl)cc2Cl)nnc1SCC(=O)NCC1CCCO1 (centres undefined) 22.4 µM [activator, single point]
Cc1ccc(NC(=O)c2ccc(Cl)cc2Cl)cc1O 5.01 µM [activator, single point]
O=c1[nH]c(-c2ccccc2)c(-c2ccccc2)o1 5.01 µM [activator, single point]
COC(=O)C1=C(C)N(C)C(=O)NC1c1cc2c(cc1Br)OCO2 (centres undefined) 5.01 µM [activator, single point]
O=C(CCc1nnc(COc2ccccc2)o1)NCc1ccccc1C(F)(F)F 31.6 µM [activator, partial curve, poor fit]
Cc1nc(NNC(=O)c2ccccc2)cc(-c2ccccc2)n1 22.4 µM [activator, single point]
CC(=O)N1CC(C)Sc2ccc(S(=O)(=O)NCCc3ccccc3)cc21 (centres undefined) 2.82 µM [activator, single point]
O=C(O)c1cccc2c1C(=O)N(C1CCCC1)C2 28.2 µM [activator, single point]
CC(C)c1ccccc1-n1c(SCc2cc(=O)oc3ccc4ccccc4c23)nnc1-c1cccnc1 28.2 µM [activator, single point]
O=c1c(Cl)c(NS(=O)(=O)c2ccccc2)cnn1-c1ccccc1 3.16 µM [activator, single point]
CCc1ccc(OCC(=O)NC(=S)Nc2ccc(F)cc2)c(Br)c1 28.2 µM [activator, single point]
O=C(Nc1ccc(S(=O)(=O)Nc2ncccn2)cc1)C1CC(=O)N(c2ccc(Cl)cc2)C1 (centres undefined) 0.447 µM [activator, partial curve, poor fit]
Cc1cccc(-n2cnc(C(=O)NNC(=S)Nc3ccccc3)c2)n1 12.6 µM [activator, single point]
O=C(O)c1ccc(Cl)c(S(=O)(=O)NC(Cc2ccccc2)C(=O)O)c1 (centres undefined) 11.2 µM [activator, partial curve, poor fit]
